The values below come from the supplement of paper PMC12819154, “High-throughput peptide-centric local stability assay extends protein–ligand identification to membrane proteins, tissues and bacteria” (Nature Structural & Molecular Biology, 2025).

Sequences of proteins named here, by UniProt entry; tags and fusion partners are left off. A change or cut given only in a name is not applied to a line headed by its entry.
UniProt Q9JJ94: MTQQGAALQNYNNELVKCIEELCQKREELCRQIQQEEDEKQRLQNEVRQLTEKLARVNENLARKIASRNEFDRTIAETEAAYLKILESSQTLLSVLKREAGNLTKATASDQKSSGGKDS
UniProt Q9JLV5, whole entry: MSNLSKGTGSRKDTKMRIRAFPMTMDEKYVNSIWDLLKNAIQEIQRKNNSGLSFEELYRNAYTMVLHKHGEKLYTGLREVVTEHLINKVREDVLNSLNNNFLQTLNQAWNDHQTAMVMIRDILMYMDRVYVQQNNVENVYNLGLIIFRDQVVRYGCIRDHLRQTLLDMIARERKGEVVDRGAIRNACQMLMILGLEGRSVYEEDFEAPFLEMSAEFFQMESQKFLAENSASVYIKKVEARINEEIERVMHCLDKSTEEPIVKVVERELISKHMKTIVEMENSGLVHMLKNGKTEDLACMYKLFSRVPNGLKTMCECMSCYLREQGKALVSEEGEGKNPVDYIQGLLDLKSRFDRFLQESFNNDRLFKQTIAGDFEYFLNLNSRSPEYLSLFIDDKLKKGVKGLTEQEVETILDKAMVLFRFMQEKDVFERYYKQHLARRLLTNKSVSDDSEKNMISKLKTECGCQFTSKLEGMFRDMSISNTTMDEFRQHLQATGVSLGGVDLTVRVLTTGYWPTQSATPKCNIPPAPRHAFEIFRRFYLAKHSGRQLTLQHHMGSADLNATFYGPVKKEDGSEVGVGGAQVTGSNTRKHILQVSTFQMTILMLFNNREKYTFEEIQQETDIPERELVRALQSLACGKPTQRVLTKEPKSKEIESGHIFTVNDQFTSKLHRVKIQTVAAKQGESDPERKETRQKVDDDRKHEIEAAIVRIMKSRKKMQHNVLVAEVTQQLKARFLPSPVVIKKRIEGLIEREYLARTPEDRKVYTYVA
UniProt Q9JLR9: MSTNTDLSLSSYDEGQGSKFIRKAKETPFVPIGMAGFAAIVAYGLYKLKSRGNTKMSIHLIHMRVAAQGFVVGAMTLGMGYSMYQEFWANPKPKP
UniProt Q9JJJ3: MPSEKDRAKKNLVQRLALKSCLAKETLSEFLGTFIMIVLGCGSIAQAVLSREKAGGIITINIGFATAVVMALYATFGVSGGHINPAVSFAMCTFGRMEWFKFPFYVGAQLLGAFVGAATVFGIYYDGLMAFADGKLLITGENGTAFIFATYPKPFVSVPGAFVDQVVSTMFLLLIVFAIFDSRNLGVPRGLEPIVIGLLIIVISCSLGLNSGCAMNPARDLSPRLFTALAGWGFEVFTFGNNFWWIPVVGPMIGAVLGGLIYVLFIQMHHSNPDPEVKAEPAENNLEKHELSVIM
UniProt Q9JKW0, whole entry: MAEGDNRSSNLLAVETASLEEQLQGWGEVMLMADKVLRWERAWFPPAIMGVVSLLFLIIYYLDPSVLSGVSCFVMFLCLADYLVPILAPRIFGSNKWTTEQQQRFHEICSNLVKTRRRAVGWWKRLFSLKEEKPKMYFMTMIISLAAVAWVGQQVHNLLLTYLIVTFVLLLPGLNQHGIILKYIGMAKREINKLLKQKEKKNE

Compound in this experiment: CN[C@@H]1C[C@H]2O[C@@](C)([C@@H]1OC)n1c3ccccc3c3c4c(c5c6ccccc6n2c5c31)C(=O)NC4 [staurosporine]
The experiment in a line: log2 fold change of tryptic peptide abundance, ligand vs vehicle (limited proteolysis) (log2 ratio); higher = more trypsin-susceptible (destabilized). The following applies: ligand concentration: 20 uM; sample: mouse liver crude lysate; replicate design: treated separately.

The other results are listed elsewhere or left out. Most values lie at the level of the controls, where differences are scatter.

As to “UniProt Q9JJ94 (peptide sequence: QIQQEEDEKQR, peptide start residue: 32)”, the log2 fold change is -0.643.

In the case of “UniProt Q9JLV5 (peptide sequence: TECGCQFTSK, peptide start residue: 460)”, the log2 fold change was -0.956. Regarding “UniProt Q9JLR9 (peptide sequence: MSIHLIHMR, peptide start residue: 56)”, the log2 fold change is -0.158. On to “UniProt Q9JJJ3 (peptide sequence: AEPAENNLEKHELSVIM, peptide start residue: 279)”, for which the log2 fold change is -0.156.

For the target “UniProt Q9JKW0 (peptide sequence: FHEICSNLVK, peptide start residue: 105)”, the log2 fold change came out at 0.241.
